# Measured values: patent US20090012148A1, “REDUCING CELLULAR CHOLESTEROL LEVELS AND/OR TREATING OR PREVENTING PHOSPHOLIPIDOSIS” (priority 2005, published 2009)
# System: CT60 cells
# Assay: Gas chromatography cholesterol assay
# Assay type: cell-based, Chinese hamster
# Method: The cholesterol lowering effect of the 14 hit compounds identified by filipin labeling was measured by an alternative chemical method that involved GC separation of solvent-extracted cellular lipids (43). CT60 cells were treated with compounds at 10 μM under the same conditions as in the screening assays. Since the GC assay estimates FC content per cell, the values are compared to the average filipin intensity assay (Table 1).
# CT60 or CT43 cells were plated on day 1 in 6-well plates. Hit compounds were added to the cells at 10 μM concentration. Cells were incubated for 24 h. Cellular lipids were extracted with hexane: iso-propyl alcohol (3:2 v/v). The lipid extracts were dried and re-suspended in hexane followed by separation on gas chromatograph using β-sitosterol as an internal standard.
# Procedure: CT60 cells were plated in 6-well plates in Ham's F-12/1.176 g/L sodium bicarbonate/2 g/L glucose/10% FBS. Following 24 h incubation, cells were treated with 10 μM of each compounds, medium being replaced with Ham's F-12/1.176 g/L sodium bicarbonate/2 g/L glucose/5.5% FBS/20 mM HEPES. The change of the medium in the wells was performed to have experimental conditions similar to those used for the screening once chemical compounds were added to the cells. After 18 h treatment with compounds, cells were washed twice with Hank's balanced salt solutions (HBSS). Cellular lipids were extracted with hexane/isopropyl alcohol (3:2 v/v) (43) dried and resuspended in hexane followed by separation on a gas chromatograph (GC) using following conditions. A Hewlett Packard GC model HP 5890 series II (Palo Alto, Calif.) equipped with a flame ionization detector, split-splitless injector, and 15 m×0.53 mm HP-5 capillary column coated with […] film thickness of 5% phenyl methyl siloxane was used to separate free cholesterol. The injection temperature was maintained at 255° C. and oven temperature was held isothermally at 260° C. using helium as a mobile phase at 30 mL/min flow rate. The free cholesterol (FC) was quantified using beta-sitosterol as internal standard to correct for lipid losses during extraction.
row,Structure (SMILES),Protein Content (μg/well) Fraction of Control
1,COc1ccccc1Nc1nc(Nc2ccccc2OC)nc(Nc2ccccc2OC)n1 [Compound 2-a-9],0.94 ± 0.05 Fraction of Control
2,O=[N+]([O-])c1cccc(C=NNc2nc(Nc3cccc4ccccc34)nc(N(c3ccccc3)c3ccccc3)n2)c1 [Compound 2-a-13],0.97 ± 0.03 Fraction of Control
3,C=CCN1C(=O)C(=Cc2cc(C)n(-c3ccccc3)c2C)C(C(=O)OC)=C1C [Compound 2-a-15],0.84 ± 0.02 Fraction of Control
4,CCN(CC)c1ccc(C=C2SC(=S)N(c3ccc(OC)cc3)C2=O)cc1 [Compound 2-a-3],0.92 ± 0.04 Fraction of Control
